For 23 sequences, self-aminoacylation results are on record in the supplement of paper PMC9233669.

One data set deals with biotinyl-Phe-oxazolone. The data set is described as follows: self-aminoacylation, catalytic enhancement (BFO) (fold over background); higher = more active; k-Seq, kA / k0A0; sequences stand for … in GGGAAUGGAUCCACAUCUACGAAUUC…UUCACUGCAGACUUGACGAAGCUG
Put shortly: (§1)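 Working in 50 μL HEPES/NaCl/KCl/MgCl2/CaCl2 buffer with 5% acetonitrile at pH 6.9–7.0, mutagenized RNA pools (0.43 μM; 21-nt variable region) were reacted with 2–1250 μM of each biotinyl-aminoacyl-oxazolone for 90 minutes at room temperature. Streptavidin capture followed, with quantification by triplicate qPCR and Illumina sequencing. Catalytic enhancement is reported as median kA over the uncatalyzed rate, the low-activity peak of a bimodal Gaussian fit to the data.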

The next data set relates to biotinyl-Ile-oxazolone. Briefly: self-aminoacylation, catalytic enhancement (BIO) (fold over background); higher = more active; k-Seq, kA / k0A0; sequences stand for … in GGGAAUGGAUCCACAUCUACGAAUUC…UUCACUGCAGACUUGACGAAGCUG
Put shortly:
as §1

The subject of a further data set is biotinyl-Trp-oxazolone. Briefly: self-aminoacylation, catalytic enhancement (BWO) (fold over background); higher = more active; k-Seq, kA / k0A0; sequences stand for … in GGGAAUGGAUCCACAUCUACGAAUUC…UUCACUGCAGACUUGACGAAGCUG
The method, boiled down: as §1

Another data set has as its system biotinyl-Val-oxazolone. The data set is described as follows: self-aminoacylation, catalytic enhancement (BVO) (fold over background); higher = more active; k-Seq, kA / k0A0; sequences stand for … in GGGAAUGGAUCCACAUCUACGAAUUC…UUCACUGCAGACUUGACGAAGCUG
Put shortly:
as §1

Another data set relates to biotinyl-Met-oxazolone. Briefly: self-aminoacylation, catalytic enhancement (BMO) (fold over background); higher = more active; k-Seq, kA / k0A0; sequences stand for … in GGGAAUGGAUCCACAUCUACGAAUUC…UUCACUGCAGACUUGACGAAGCUG
The method, boiled down: as §1

The test system of a further data set is biotinyl-Leu-oxazolone. The data set is described as follows: self-aminoacylation, catalytic enhancement (BLO) (fold over background); higher = more active; k-Seq, kA / k0A0; sequences stand for … in GGGAAUGGAUCCACAUCUACGAAUUC…UUCACUGCAGACUUGACGAAGCUG
Put shortly: as §1

Variants at the background level are over-represented here.

Take “AUUCACCUAGGUGAUCGGGAG [Fam2.2 aminoacylation ribozyme variant]”: the self-aminoacylation in the data set on biotinyl-Phe-oxazolone worked out at 0.405; in the data set with biotinyl-Ile-oxazolone it was 1.38; with biotinyl-Trp-oxazolone, 1.58; with biotinyl-Val-oxazolone, 1.36; in the data set on biotinyl-Met-oxazolone it was 1.22; with biotinyl-Leu-oxazolone, 1.08.

Take “CCACACUUCAUACAAUCGGUC [Fam1B.1 aminoacylation ribozyme variant]”: the self-aminoacylation in the data set with biotinyl-Phe-oxazolone came to 0.729; in the data set on biotinyl-Ile-oxazolone, 0.618; in the data set with biotinyl-Trp-oxazolone, 0.726; in the data set on biotinyl-Val-oxazolone, 0.744; with biotinyl-Met-oxazolone, 0.608; with biotinyl-Leu-oxazolone, 0.703.

Consider “CCACACUUCAAGCAACCGGUA [Fam1B.1 aminoacylation ribozyme variant]”, for which the self-aminoacylation was 1.34 with biotinyl-Phe-oxazolone; 1.24 in the data set on biotinyl-Ile-oxazolone; 0.636 in the data set on biotinyl-Trp-oxazolone; 1.47 with biotinyl-Val-oxazolone; 1.35 with biotinyl-Met-oxazolone; 1.42 in the data set on biotinyl-Leu-oxazolone.

In the case of “CCACACUCCAAGCAAUCGGUU [Fam1B.1 aminoacylation ribozyme variant]”, the self-aminoacylation in the data set with biotinyl-Phe-oxazolone was 1.22; in the data set on biotinyl-Ile-oxazolone it was 1.38; in the data set with biotinyl-Trp-oxazolone, 1.28; in the data set with biotinyl-Val-oxazolone it was 1.47; with biotinyl-Met-oxazolone, 1.35; with biotinyl-Leu-oxazolone, 1.11.

As to “CCACACUUCAAGCAAUCGUUA [Fam1B.1 aminoacylation ribozyme variant]”, the self-aminoacylation with biotinyl-Phe-oxazolone was 1.1; with biotinyl-Ile-oxazolone, 1.02; in the data set on biotinyl-Trp-oxazolone, 0.757; with biotinyl-Val-oxazolone it was 1.22; in the data set on biotinyl-Met-oxazolone it was 0.884; in the data set on biotinyl-Leu-oxazolone it was 0.751.

As to “CUACUACAAACAACCGGUCUG [Fam1A.1 aminoacylation ribozyme variant]”, the self-aminoacylation with biotinyl-Phe-oxazolone was determined as 1.12; in the data set with biotinyl-Ile-oxazolone it was 1.19; with biotinyl-Trp-oxazolone, 0.954; in the data set with biotinyl-Val-oxazolone, 1.14; in the data set on biotinyl-Met-oxazolone, 0.601; with biotinyl-Leu-oxazolone it was 0.845.

With “AUUACCCUGGUCAUGGAUUGA [Fam2.1 aminoacylation ribozyme variant]”, the self-aminoacylation with biotinyl-Phe-oxazolone is 0.696; in the data set with biotinyl-Ile-oxazolone, 0.919; in the data set with biotinyl-Trp-oxazolone it was 1.02; in the data set with biotinyl-Val-oxazolone, 0.769; with biotinyl-Met-oxazolone it was 0.895; in the data set on biotinyl-Leu-oxazolone, 0.845.

In the case of “AAGUAUGCUAAUAGUCCCAAG [Fam3.1 aminoacylation ribozyme variant]”, the self-aminoacylation in the data set with biotinyl-Phe-oxazolone came out at 3.66; with biotinyl-Ile-oxazolone, 1.14; in the data set with biotinyl-Trp-oxazolone, 1.54; in the data set on biotinyl-Val-oxazolone, 1.16; in the data set with biotinyl-Met-oxazolone, 1.18; in the data set on biotinyl-Leu-oxazolone, 1.02.

With “AUUCACCUAGGUUAUCGGGCG [Fam2.2 aminoacylation ribozyme variant]”, the self-aminoacylation in the data set on biotinyl-Phe-oxazolone came out at 1.4; with biotinyl-Ile-oxazolone, 1.77; with biotinyl-Trp-oxazolone it was 1.67; in the data set with biotinyl-Val-oxazolone, 1.49; in the data set on biotinyl-Met-oxazolone, 1.62; with biotinyl-Leu-oxazolone, 1.79.

Regarding “AAGUUUGUUAUUAGUCGCAAG [Fam3.1 aminoacylation ribozyme variant]”, the self-aminoacylation in the data set with biotinyl-Phe-oxazolone is 1.84; in the data set on biotinyl-Ile-oxazolone, 1.4; in the data set with biotinyl-Trp-oxazolone, 1.59; with biotinyl-Val-oxazolone it was 1.49; in the data set on biotinyl-Met-oxazolone, 1.29; in the data set with biotinyl-Leu-oxazolone, 1.29.

Regarding “CCACACUUCUAGGAAUCGGUC [Fam1B.1 aminoacylation ribozyme variant]”, the self-aminoacylation is 1.03 in the data set with biotinyl-Phe-oxazolone; 0.865 in the data set with biotinyl-Ile-oxazolone; 0.948 with biotinyl-Trp-oxazolone; 1.04 in the data set on biotinyl-Val-oxazolone; 0.883 in the data set with biotinyl-Met-oxazolone; 1.08 with biotinyl-Leu-oxazolone.

“CUACUGCAAUCAAUCGGUCUG [Fam1A.1 aminoacylation ribozyme variant]”: the self-aminoacylation in the data set on biotinyl-Phe-oxazolone came out at 2.9; in the data set with biotinyl-Ile-oxazolone it was 0.763; in the data set on biotinyl-Trp-oxazolone, 0.766; in the data set on biotinyl-Val-oxazolone, 0.883; in the data set on biotinyl-Met-oxazolone it was 0.743; in the data set on biotinyl-Leu-oxazolone it was 0.7.

Regarding “CUAGUUCGAACAAUCGGUCUG [Fam1A.1 aminoacylation ribozyme variant]”, the self-aminoacylation with biotinyl-Phe-oxazolone turned out to be 1.06; in the data set on biotinyl-Ile-oxazolone it was 0.938; with biotinyl-Trp-oxazolone it was 0.761; in the data set on biotinyl-Val-oxazolone, 0.715; in the data set on biotinyl-Met-oxazolone, 0.892; with biotinyl-Leu-oxazolone, 0.939.

Take “CCACACUUCGAGCAAUGGGUC [Fam1B.1 aminoacylation ribozyme variant]”: the self-aminoacylation in the data set on biotinyl-Phe-oxazolone stood at 0.642; in the data set with biotinyl-Ile-oxazolone it was 1; in the data set with biotinyl-Trp-oxazolone, 0.654; with biotinyl-Val-oxazolone, 0.934; in the data set on biotinyl-Met-oxazolone it was 0.798; in the data set on biotinyl-Leu-oxazolone, 0.845.

With “AAUUUUGCUAAUAGACGCAAG [Fam3.1 aminoacylation ribozyme variant]”, the self-aminoacylation in the data set on biotinyl-Phe-oxazolone turned out to be 1.6; with biotinyl-Ile-oxazolone, 1.25; with biotinyl-Trp-oxazolone, 0.904; in the data set on biotinyl-Val-oxazolone it was 1.02; in the data set on biotinyl-Met-oxazolone it was 0.927; with biotinyl-Leu-oxazolone, 0.814.

In the case of “CUACACUGCAAGCAAUCGGUC [Fam1B.1 aminoacylation ribozyme variant]”, the self-aminoacylation in the data set with biotinyl-Phe-oxazolone worked out at 0.895; with biotinyl-Ile-oxazolone it was 0.977; in the data set with biotinyl-Trp-oxazolone, 0.703; in the data set on biotinyl-Val-oxazolone, 0.932; in the data set on biotinyl-Met-oxazolone, 0.756; in the data set on biotinyl-Leu-oxazolone, 0.85.

For “AAGUUUGCUAAUAGUGACAAG [Fam3.1 aminoacylation ribozyme variant]”, the self-aminoacylation in the data set with biotinyl-Phe-oxazolone worked out at 1.55; with biotinyl-Ile-oxazolone, 0.844; in the data set on biotinyl-Trp-oxazolone, 1.25; in the data set with biotinyl-Val-oxazolone, 1.04; in the data set on biotinyl-Met-oxazolone, 0.828; in the data set on biotinyl-Leu-oxazolone it was 0.657.

Consider “CUACAUCAAACAAUCGGUAUG [Fam1A.1 aminoacylation ribozyme variant]”, for which the self-aminoacylation with biotinyl-Phe-oxazolone stood at 0.996; in the data set on biotinyl-Ile-oxazolone, 0.737; in the data set with biotinyl-Trp-oxazolone, 0.658; with biotinyl-Val-oxazolone, 0.594; in the data set on biotinyl-Met-oxazolone it was 0.832; with biotinyl-Leu-oxazolone, 0.673.

As for “CCACACUUCAAGCCAGCGGUC [Fam1B.1 aminoacylation ribozyme variant]”, the self-aminoacylation in the data set on biotinyl-Phe-oxazolone amounted to 0.92; in the data set on biotinyl-Ile-oxazolone it was 1.36; with biotinyl-Trp-oxazolone, 1.28; in the data set on biotinyl-Val-oxazolone it was 1.47; with biotinyl-Met-oxazolone, 0.988; in the data set on biotinyl-Leu-oxazolone it was 1.44.

Turning to “AUUACCCUGGUUAUCGACUGA [Fam2.1 aminoacylation ribozyme variant]”, the self-aminoacylation was 0.62 in the data set on biotinyl-Phe-oxazolone; 0.587 in the data set on biotinyl-Ile-oxazolone; 0.329 with biotinyl-Trp-oxazolone; 0.673 in the data set with biotinyl-Val-oxazolone; 0.542 in the data set with biotinyl-Met-oxazolone; 0.625 with biotinyl-Leu-oxazolone.

“AAGUUUGCUAAUAGUCUCUAG [Fam3.1 aminoacylation ribozyme variant]”: the self-aminoacylation was determined as 1.52 in the data set on biotinyl-Phe-oxazolone; 0.921 in the data set on biotinyl-Ile-oxazolone; 0.906 in the data set on biotinyl-Trp-oxazolone; 0.845 in the data set on biotinyl-Val-oxazolone; 0.943 with biotinyl-Met-oxazolone; 0.693 in the data set on biotinyl-Leu-oxazolone.

Consider “AAGUUUGCGAUUAGUCGCAAG [Fam3.1 aminoacylation ribozyme variant]”, for which the self-aminoacylation amounted to 1.39 in the data set with biotinyl-Phe-oxazolone; 1.03 in the data set with biotinyl-Ile-oxazolone; 1.67 with biotinyl-Trp-oxazolone; 0.957 with biotinyl-Val-oxazolone; 1.6 in the data set on biotinyl-Met-oxazolone; 1.24 in the data set with biotinyl-Leu-oxazolone.

For “AUUACCCUGGUGAUCGAGUGC [Fam2.1 aminoacylation ribozyme variant]”, the self-aminoacylation in the data set on biotinyl-Phe-oxazolone was determined as 0.485; in the data set with biotinyl-Ile-oxazolone, 0.883; with biotinyl-Trp-oxazolone, 0.768; with biotinyl-Val-oxazolone, 0.941; in the data set with biotinyl-Met-oxazolone it was 0.942; in the data set with biotinyl-Leu-oxazolone, 1.06.
